PubChem BioAssay AID926 (National Center for Advancing Translational Sciences (NCATS), 2007)
The whole screen tested about 73,000 compounds, of which about 350 (0.48%) were called active. About 17% were inconclusive and are not listed. Calls follow the shape of the dose curve; as a rule, active = well fitted activation curve with a large enough effect in the main read-out, with a control signal flat (not every such curve was filed as active); inconclusive = small, poorly fitted or top-dose-only effect, or a change in a side signal; inactive = no such curve, though single readings can be large or run the other way; reference of the percent scale not stated here. The list shows a part of the results, in another mix than the full data. Entries without a call were filed so in the source.
Potency is read from the fitted curve at half-maximal effect.

The chains behind the UniProt entries cited, without tags or fusion partners.
UniProt P16473, whole entry, looked up: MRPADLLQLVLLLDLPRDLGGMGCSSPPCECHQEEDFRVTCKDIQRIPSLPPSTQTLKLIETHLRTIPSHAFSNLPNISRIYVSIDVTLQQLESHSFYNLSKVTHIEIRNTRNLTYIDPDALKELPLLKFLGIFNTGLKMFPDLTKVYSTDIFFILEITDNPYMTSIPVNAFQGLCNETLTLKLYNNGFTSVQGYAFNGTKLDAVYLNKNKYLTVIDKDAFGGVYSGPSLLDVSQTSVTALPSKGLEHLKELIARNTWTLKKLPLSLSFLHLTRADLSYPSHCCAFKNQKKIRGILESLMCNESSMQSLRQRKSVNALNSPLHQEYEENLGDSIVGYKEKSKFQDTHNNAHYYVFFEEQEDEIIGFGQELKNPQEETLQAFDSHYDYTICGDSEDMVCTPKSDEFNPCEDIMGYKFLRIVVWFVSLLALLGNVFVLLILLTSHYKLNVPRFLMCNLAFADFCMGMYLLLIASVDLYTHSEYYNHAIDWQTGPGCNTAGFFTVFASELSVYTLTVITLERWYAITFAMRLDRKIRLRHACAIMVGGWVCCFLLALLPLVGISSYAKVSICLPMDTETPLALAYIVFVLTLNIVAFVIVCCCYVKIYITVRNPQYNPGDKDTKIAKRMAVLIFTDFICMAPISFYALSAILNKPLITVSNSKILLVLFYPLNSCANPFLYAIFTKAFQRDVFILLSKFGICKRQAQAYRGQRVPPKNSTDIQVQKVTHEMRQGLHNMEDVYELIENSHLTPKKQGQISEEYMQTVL

These compounds were tested against Thyrotropin receptor (Homo sapiens) (UniProt P16473) (assay: qHTS Assay for Agonists of the Thyroid Stimulating Hormone Receptor). Details: HEK293-CNG-TSHR cells (CNG channel as cAMP sensor), membrane potential dye, cAMP; activation: at 57.1 µM (top of the series) unless noted.
Text: NIH Chemical Genomics Center [NCGC]
NIH Molecular Libraries Screening Centers Network [MLSCN]
PI Name: Dr. Marvin Gershengorn, NIH
Thyroid Stimulating Hormone Receptor
TSH is an alpha/beta heterodimeric glycoprotein hormone secreted from the anterior pituitary gland which belongs to the glycoprotein hormone family. The actions of TSH are mediated by a seven-transmembrane receptor, which upon TSH binding couples preferentially to the G-alpha (s) protein (Gs), resulting in activation of adenylate cyclase and increase in cyclic adenosine 3', 5' monophosphate (cAMP). The TSH receptor (THSR) is mainly expressed in thyroid follicular cells and regulates their growth and function. Recombinant TSH is used to activate TSHR in patients with thyroid cancer receiving thyroid hormone suppression therapy and to screen for residual tumor after surgery, but it is expensive and must be administered intramuscularly. An orally active small molecule TSHR agonist would serve as an invaluable research tool for studying TSHR pharmacology and physiology, and would have multiple advantages in therapeutic settings. However, no selective small molecule agonist of the TSH receptor exists, and no small molecule screen for TSHR agonists has ever been reported.
This cell based assay utilized a cyclic nucleotide gated ion channel (CNG) as a biosensor for cAMP induction by potential TSHR agonists.
HEK 293 cells stably expressing the TSHR as well as a modified CNG were purchased from BD biosciences. Stimulation of cAMP production causes the CNG to open and subsequent membrane depolarization to occur. A fluorescent membrane potential dye (BD biosciences) was utilized to detect cAMP stimulation in TSHR cells.
The cells were maintained in DMEM medium (Invitrogen) containing 10 % FBS (Hyclone), 100 units/ml Penicillin, 100 ug/ml Streptomycin (Invitrogen), and 250 ug/ml Geneticin (Invitrogen) and 1 ug/ml Puromycin (Invitrogen) at 37C in 5% CO2. HEK 293 cells expressing CNG but without TSHR (parental cells) were used in concert to control for compounds signaling through endogenous receptors and targets of HEK 293 cells.
NCGC Assay Protocol Summary:
High Throughput Screening. Freshly passaged cells (TSHR or parental) were dispensed into 1536-well assay plates at 4 ul/well in DMEM containing phenol red (Invitrogen), 10% FCS (Hyclone), and 100 units/ml Penicillin, 100 ug/ml Streptomycin (Invitrogen) and incubated at 37 C with 5% CO2 for 20 to 36 hrs before the robotic screening. The screen was initiated by addition of 4 ul/well membrane potential dye containing 100 uM RO 20-1724 (Sigma Aldrich), followed by 60 min incubation at room temperature to allow for dye equilibration across the cell membrane. 23 nl/well compound or control was then added to the assay plates, which were incubated for additional 30 min before reading a Envision fluorescence plate reader (Perkin Elmer) in bottom-read mode for fluorescence intensity (emission at 590 nm).
Keywords: Thyroid-stimulating hormone TSH, TSHR, TSHR agonist, quantitative high throughput screening, qHTS, HTS, probe identification, CNG, cAMP, cyclic nucleotide gated ion channel PubChem
`CC(C)Oc1ccc2c(=O)c3cc(C(=O)O)ccc3oc2c1` showed an activation of 33.9%.
`O=C1c2ccccc2C(O)N1Cc1ccccc1` (stereo unspecified) was tested, and the activation was 36%.
`CC(C)CCn1c(N)c(S(=O)(=O)c2cccs2)c2nc3ccccc3nc21` was tested, and the Potency was active: 12.6 µM.
With `NC(=O)c1nsc(C(=O)N(CC(=O)NCc2ccc3c(c2)OCO3)C2CCCC2)c1N` the Potency was active: 12.6 µM.
With `CC(C)=C1C2C=CC1C1C(=O)N(c3ccc4c(c3)OCO4)C(=O)C21` (stereo unspecified) the Potency was active: 2.51 µM.
`COc1cccc(-c2nn(-c3ccccc3)cc2CO)c1` was tested, and the “activation” value was inactive: -47.4%.
In the case of `O=C(Nc1ccc2nc(C3CC3)n(Cc3ccc(F)cc3)c(=O)c2c1)c1ccco1`, the activation was 46.3%.
`CCOc1cc2[nH]c(=O)n(CC3CCC(C(=O)NCCC(C)C)CC3)c(=O)c2cc1OCC` (stereo unspecified) showed an activation of 33.5%.
`CC(C)C(c1nnnn1Cc1ccco1)N1CCN(c2nc3ccccc3s2)CC1` (stereo unspecified) showed an activation of 36.9%.
With `O=C(CSc1nc2scc(-c3ccco3)c2c(=O)n1-c1ccccc1)N1CCOCC1` the Potency was active: 15.8 µM.
Work on `Cc1ccc(C(N)=S)c(C)c1` yielded an activation of 46%.
With `Cn1cc(CN2CCN(c3ccccc3)CC2)c2ccccc21` the activation was 51.1%.
For `N=c1c(C(=O)NCc2ccc(F)cc2)cc2c(=O)n3ccccc3nc2n1Cc1ccco1`, the “activation” value was inactive: -42%.
`CCCCCCn1c(-c2ccco2)nc2oc3cc(OC)ccc3c(=O)c2c1=O` was tested, and the activation was 54.1%.
In the case of `COc1ccc(C(C(=O)NC2CCCC2)N(C(=O)c2ccco2)c2ccc3c(c2)OCO3)cc1OC` (stereo unspecified), the Potency was active: 10 µM.
For `O=C1N=C(N2CCOCC2)S/C1=C1\C(=O)N(Cc2ccccc2)c2ccc(Br)cc21`, the “activation” value was inactive: -42.1%.
`Cc1ccc(-n2c(SCC(=O)Nc3ccc4cn[nH]c4c3)nnc2-c2ccco2)cc1` showed an activation of 44.8%.
With `COC(=O)c1ccc(CN2C(=O)c3ccccc3S2(=O)=O)cc1` the activation was 58.1%.
With `COc1cc(OC)c(NC2=NCCCCC2)cc1Cl` the activation was 34.7%.
With `CCc1cc(Br)ccc1N1C(=O)C2CC=CCC2C1=O` (stereo unspecified) the Potency was active: 2.51 µM.
For `COc1ccccc1NS(=O)(=O)c1ccc(C(=O)OCC(=O)NCc2ccco2)cc1`, the activation was 54.3%.
In the case of `CC(=O)c1cn(CC(=O)Nc2ccccc2)c2ccccc12`, the activation was 41.4%.
With `O=C(c1cccc(F)c1)N1C2C=CC(C2)C1(C(F)(F)F)C(F)(F)F` (stereo unspecified) the Potency was active: 25.1 µM.
`Cc1ccc(NC(=O)COC(=O)c2ccn(C)n2)cc1` was tested, and the activation was 31.9%.
`CCOC(=O)N1CCN(C(=O)c2cn(-c3ccc(C)c(C)c3)c(=O)c3ccccc23)CC1` gave an activation of 37.7%.
In the case of `COC(=O)[C@H]1C[C@@H]1[C@H](NC(=O)OCc1ccccc1)c1ccccc1`, the activation was 99.7%.
`CC1(C)S[C@@H]2[C@H](NC(=O)[C@H](C(=O)O)c3ccsc3)C(=O)N2[C@H]1C(=O)O` gave an activation of 31.4% [at 25.6 µM].
In the case of `CCOC(=O)C1=C(C)Nc2ncnn2C1/C=C/c1ccccc1` (stereo unspecified), the activation was 36.3%.
In the case of `CCOC(=O)CSC1=Nc2ccccc2C2=NC(CC(=O)NCc3ccc(OC)cc3)C(=O)N12` (stereo unspecified), the activation was 36.3%.
Compound `COc1cc(C(=O)OCC(=O)NC2CCCC2)cc(NC(=O)c2ccco2)c1OC` has an activation of 39.8%.
For `CO[C@@H]1C=CO[C@]2(C)Oc3c(C)c(O)c4c(O)c(c(C=NN5CCN(C)CC5)c(O)c4c3C2=O)NC(=O)C(C)=CC=C[C@H](C)[C@H](O)[C@H](C)[C@H](O)[C@H](C)[C@H](OC(C)=O)[C@H]1C`, the “activation” value was inactive: -6.69% [at 25.6 µM].
`N[C@H]1CCN(O)C1=O` was tested, and the “activation” value was inactive: 8.72%.
`C=CCc1ccccc1OC[C@H](O)CNC(C)C` was tested, and the “activation” value was inactive: -5.14% [at 25.6 µM].
`CCOC(=O)C(NC(=O)c1ccc(OC)cc1)(OCC1(CC)COC1)C(F)(F)F` (stereo unspecified) was tested, and the Potency was active: 7.94 µM.
`Cc1oc(-c2cc(Cl)ccc2Cl)cc1-c1nn2c(C)nnc2s1` gave an activation of 35.4%.
Compound `N[C@H](C(=O)O)c1cc(O)cc(O)c1` has an activation of 30%.
